Test results reported in patent publication US7312193B2, “Calcium phosphopeptide complexes” (The University of Melbourne, priority 1997, dated 2007).

assay: CPP and synthetic peptide binding to HA at 37° C.
Source text: Similarly, we investigated the adsorption of the CPP and synthetic homologues and analogues onto HA (Table 2).

| Substance | Molecular Area [nm^2] |
| --- | --- |
| θθTEE | 3.61 |
| QMEAEΣIΣΣΣEEIVPNΣVEQK [αs1(59-79), tryptic casein phosphopeptide] | 4.75 |
| DΣΣEE | 2.04 |
| AcGlu-Ser(P)-Ile-Ser(P)-Ser(P)-Ser(P)-Glu-GluNHMe [αs1(63-70)] | 3.56 |
| EΣΣEE | 1.74 |
| θTθEE | 3.77 |
| TθθEE | 3.03 |
| [pS][pS][pS]EE [ΣΣΣEE] | 3.27 |

Square brackets hold non-standard residues; d marks the D form. Ends that are not written are not given here. pS = N[C@@H](COP(=O)(O)O)C(=O)O
